{"source": "PubChem BioAssay AID328", "about": "(DTP/NCI, 2004)", "tested_on": "BDF1 mice, P388 leukemia ip, median survival T/C", "experiment": "NCI In Vivo Anticancer Drug Screen. Data for tumor model P388 Leukemia (intraperitoneal) in B6D2F1 (BDF1) mice", "settings": "T/C endpoint: median survival time, higher T/C = longer survival", "method_in_brief": "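Vehicle-dosed animals serve as the reference; survival of compound-dosed, tumour-implanted mice is divided by it.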", "key": {"[1]": {"settings": "dose: 400.0 mg/kg/injection, schedule: Q01DX009 (ip), vehicle: Klucel (hydroxypropylcellulose) (HPC)"}, "[2]": {"settings": "dose: 200.0 mg/kg/injection, schedule: Q01DX009 (ip), vehicle: saline with Tween-80"}, "[3]": {"settings": "dose: 50.0 mg/kg/injection, schedule: Q01DX009 (ip), vehicle: saline with Tween-80"}, "[4]": {"settings": "dose: 25.0 mg/kg/injection, schedule: Q01DX009 (ip), vehicle: saline with Tween-80"}}, "note": "The list does not hold the whole screen: it is rich in T/C values a quarter to a half above the control, in often repeated tests (any T/C) and in doses without a T/C. Further doses and runs are listed elsewhere. T/C: endpoint of the treated group in % of that of the vehicle group. Some doses have a count of surviving animals in place of a T/C: the source files T/C as zero there, which appears to mark a toxic dose or a test without result, not a measured value. Some survivor counts are full or nearly so, which does not show that the dose was tolerated: the source hardly ever lists a survival T/C far under the control, and the zero likely stands for such cases as well. Counts of survivors are from the toxicity check (mostly the fifth day) where no day follows; animals may have died later. Schedules are NCI's codes, read here as Q, the interval in days (D) or hours (H), X, the number of doses. For survival time, the PubChem record calls one and a half times the control and up active, and a quarter to a half above the control has no call in these data; cut-offs in other NCI protocols can differ. Some entries hold several experiments; their values stand side by side, smallest first. Some T/C values are followed by the survivors on the day toxicity was checked, most often the fifth; where none is given, no animal had died by that day."}
{"smiles": "O=C(Nc1cccc(C2=NCCN2)c1)c1ccc(C(=O)Nc2cccc(C3=NCCN3)c2)c(Cl)c1", "values": [{"measurement": "survivor count", "setting": "dose: 8.0 mg/kg/injection, schedule: Q01DX010 (ip), vehicle: water", "result": "1 of 6"}]}
{"smiles": "O=c1oc2c3ccccc3c3ccccc3c2o1", "values": [{"measurement": "survivor count", "setting": "dose: 200.0 mg/kg/injection, schedule: Q01DX009 (ip), vehicle: Klucel (hydroxypropylcellulose) (HPC)", "result": "4 of 6"}, {"measurement": "survivor count", "setting": "[1]", "result": "0 of 6"}]}
{"smiles": "COC1CCC(C)(C=O)C(C#N)(C#N)C1(C#N)C#N", "note": "(stereo not drawn)", "values": [{"measurement": "survivor count", "setting": "dose: 100.0 mg/kg/injection, schedule: Q01DX001 (ip), vehicle: saline with Tween-80", "result": "0 of 6"}, {"measurement": "survivor count", "setting": "dose: 200.0 mg/kg/injection, schedule: Q01DX001 (ip), vehicle: saline with Tween-80", "result": "0 of 6"}]}
{"smiles": "Nc1ccc(N=Nc2ccccc2)c(N)c1", "values": [{"measurement": "T/C", "setting": "dose: 130.0 mg/kg/injection, schedule: Q01DX009 (ip), vehicle: saline", "result": "144 % of control"}, {"measurement": "T/C", "setting": "dose: 200.0 mg/kg/injection, schedule: Q01DX009 (ip), vehicle: saline", "result": "135 and 138 % of control"}, {"measurement": "survivor count", "setting": "dose: 300.0 mg/kg/injection, schedule: Q01DX009 (ip), vehicle: saline with Tween-80", "result": "1 of 6"}, {"measurement": "T/C", "setting": "dose: 300.0 mg/kg/injection, schedule: Q01DX009 (ip), vehicle: saline", "result": "144 % of control [5 of 6 alive]"}, {"measurement": "survivor count", "setting": "[1]", "result": "3 of 6"}]}
{"smiles": "OC(CI)C(O)C(O)C(O)CI", "note": "(stereo not drawn)", "values": [{"measurement": "T/C", "setting": "dose: 132.0 mg/kg/injection, schedule: Q01DX009 (ip), vehicle: saline with Tween-80", "result": "140 % of control"}, {"measurement": "T/C", "setting": "[2]", "result": "125 % of control"}]}
{"smiles": "Nc1nccc(NCCCCCCNc2ccnc(N)n2)n1", "values": [{"measurement": "T/C", "setting": "dose: 100.0 mg/kg/injection, schedule: Q04DX002 (ip), vehicle: saline", "result": "130 % of control"}, {"measurement": "survivor count", "setting": "dose: 200.0 mg/kg/injection, schedule: Q04DX002 (ip), vehicle: saline", "result": "0 of 6"}, {"measurement": "survivor count", "setting": "dose: 400.0 mg/kg/injection, schedule: Q04DX002 (ip), vehicle: saline", "result": "0 of 6"}]}
{"smiles": "COc1ccc(/C=C/c2ccnc3ccccc23)cc1", "values": [{"measurement": "survivor count", "setting": "[3]", "result": "6 of 6"}]}
{"smiles": "CC(=O)Nc1ccc(SSSc2ccc(NC(C)=O)cc2)cc1", "values": [{"measurement": "T/C", "setting": "dose: 300.0 mg/kg/injection, schedule: Q01DX009 (ip), vehicle: water", "result": "136 % of control"}, {"measurement": "survivor count", "setting": "dose: 400.0 mg/kg/injection, schedule: Q01DX009 (ip), vehicle: water", "result": "3 of 6"}]}
{"smiles": "CC1(C)CC(=O)C(C)(C)C(=O)C1", "values": [{"measurement": "survivor count", "setting": "dose: 12.5 mg/kg/injection, schedule: Q04DX003 (ip), vehicle: saline with Tween-80", "result": "6 of 6"}, {"measurement": "survivor count", "setting": "[4]", "result": "0 of 6"}, {"measurement": "survivor count", "setting": "dose: 50.0 mg/kg/injection, schedule: Q04DX003 (ip), vehicle: saline with Tween-80", "result": "1 of 6"}]}
{"smiles": "CN(C)c1ccc(/C=C/c2ccnc3ccc(I)cc23)cc1", "values": [{"measurement": "survivor count", "setting": "[4]", "result": "2 of 6"}, {"measurement": "survivor count", "setting": "[3]", "result": "0 of 6"}, {"measurement": "survivor count", "setting": "dose: 100.0 mg/kg/injection, schedule: Q01DX009 (ip), vehicle: saline with Tween-80", "result": "5 of 6"}, {"measurement": "survivor count", "setting": "[2]", "result": "4 of 6"}]}
{"smiles": "CC(=O)O[C@@H]1C[C@@]2(C)[C@@H]3CC=C4[C@@H](C[C@H](O)C(=O)C4(C)C)[C@]3(C)C(=O)C[C@]2(C)[C@H]1[C@@](C)(O)C(=O)/C=C/C(C)(C)OC(C)=O", "values": [{"measurement": "T/C", "setting": "dose: 6.25 mg/kg/injection, schedule: Q01DX010 (ip), vehicle: carboxymethylcellulose (CMC)", "result": "127 % of control"}, {"measurement": "T/C", "setting": "dose: 50.0 mg/kg/injection, schedule: Q01DX010 (ip), vehicle: carboxymethylcellulose (CMC)", "result": "136 % of control"}, {"measurement": "survivor count", "setting": "dose: 100.0 mg/kg/injection, schedule: Q01DX010 (ip), vehicle: carboxymethylcellulose (CMC)", "result": "5 of 6"}]}
